The text below walks through data of patent US20040213780.

The chains behind the UniProt entries cited, without tags or fusion partners. Residues count along the entry.
UniProt P08047, 2-785: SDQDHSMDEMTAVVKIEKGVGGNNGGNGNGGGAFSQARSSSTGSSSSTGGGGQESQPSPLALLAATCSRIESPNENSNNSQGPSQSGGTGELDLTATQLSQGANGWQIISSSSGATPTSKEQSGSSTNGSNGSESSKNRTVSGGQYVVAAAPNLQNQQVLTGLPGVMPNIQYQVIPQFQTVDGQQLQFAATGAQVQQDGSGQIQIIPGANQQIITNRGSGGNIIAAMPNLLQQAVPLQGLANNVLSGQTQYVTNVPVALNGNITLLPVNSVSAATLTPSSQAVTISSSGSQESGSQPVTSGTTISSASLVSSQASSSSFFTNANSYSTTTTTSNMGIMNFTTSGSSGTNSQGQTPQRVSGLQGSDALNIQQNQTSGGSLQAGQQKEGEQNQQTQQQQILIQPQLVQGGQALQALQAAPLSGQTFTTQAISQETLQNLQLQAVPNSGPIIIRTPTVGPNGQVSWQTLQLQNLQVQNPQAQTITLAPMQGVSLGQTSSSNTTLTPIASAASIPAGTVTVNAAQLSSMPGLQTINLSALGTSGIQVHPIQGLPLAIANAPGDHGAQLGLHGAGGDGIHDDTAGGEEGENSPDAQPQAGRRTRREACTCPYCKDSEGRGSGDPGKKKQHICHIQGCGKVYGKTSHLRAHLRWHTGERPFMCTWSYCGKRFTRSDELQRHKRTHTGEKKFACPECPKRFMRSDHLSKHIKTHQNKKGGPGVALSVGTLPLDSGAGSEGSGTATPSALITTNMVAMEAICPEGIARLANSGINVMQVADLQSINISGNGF
UniProt Q01714, 2-786: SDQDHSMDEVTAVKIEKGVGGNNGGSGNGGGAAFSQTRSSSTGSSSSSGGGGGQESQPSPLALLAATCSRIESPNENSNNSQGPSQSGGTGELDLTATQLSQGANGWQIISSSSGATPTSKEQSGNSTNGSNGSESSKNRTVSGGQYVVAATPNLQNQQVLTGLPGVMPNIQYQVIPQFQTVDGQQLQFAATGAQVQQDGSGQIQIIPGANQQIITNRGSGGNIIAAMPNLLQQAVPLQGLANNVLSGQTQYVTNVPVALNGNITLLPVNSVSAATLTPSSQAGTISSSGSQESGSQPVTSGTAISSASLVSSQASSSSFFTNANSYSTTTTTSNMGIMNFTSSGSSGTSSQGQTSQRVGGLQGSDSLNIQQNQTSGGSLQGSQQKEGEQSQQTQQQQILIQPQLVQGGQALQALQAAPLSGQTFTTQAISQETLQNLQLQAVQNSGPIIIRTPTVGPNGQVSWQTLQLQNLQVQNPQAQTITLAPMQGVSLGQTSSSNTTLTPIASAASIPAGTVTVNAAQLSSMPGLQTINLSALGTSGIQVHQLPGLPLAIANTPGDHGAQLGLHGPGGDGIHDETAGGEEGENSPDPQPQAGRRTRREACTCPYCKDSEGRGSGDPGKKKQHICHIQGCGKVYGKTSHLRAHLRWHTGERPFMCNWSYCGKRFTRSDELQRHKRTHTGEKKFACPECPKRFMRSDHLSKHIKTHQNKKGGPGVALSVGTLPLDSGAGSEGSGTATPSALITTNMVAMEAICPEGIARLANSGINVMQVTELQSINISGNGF

The target in data set [1] is Sp1 (endogenous, brain nuclear extract) (Homo sapiens) (UniProt P08047). Kind of data set: EMSA. Conditions: caudate nuclear extract; supershifted with Sp1 antibody; binding decreased 39% in grade 1 and 48% in grade 4 HD caudate, unchanged in hippocampus; protein in an extract; label: labeled (autoradiography).
In data set [2] the target is Sp1 (endogenous, striatal neuron nuclear extract) (Rattus norvegicus) (UniProt Q01714). As to the kind of experiment: EMSA. The settings on record: nuclear extract of transfected primary striatal neurons; binding 55% lower with HttQ75 than HttQ17; 100-fold competitor used; protein in an extract; label: labeled (autoradiography). A general note: Mobility shift assays separate free from complexed probe on a gel.

Where cells or extracts were used, other partners may take part.

Regarding “CAGGGTGACCCCGCCCCCTCCTCC (double strand) [D2 dopamine receptor promoter Sp1 fragment]”, the binding result in data set [1] and in data set [2] was “binds” in each case.
